Assay results from patent publication US4643988A, “Amphipathic peptides” (Research Corporation, priority 1984, dated 1987).
Not every detail of the peptide structures is certain; ends, links or a residue may be inferred. Where no end group is shown, it is not given here.

Assays:
[1] = Lipid association: complex formation of peptides with phospholipid vesicles (negative stain electron microscopy); type: physicochemical
HDL = details: literature report; cited from earlier work
[2] = target: T1, lecithin:cholesterol acyl transferase (LCAT) (Homo sapiens, UniProt P04180); details: literature report; cited from earlier work
T1 sequence (P04180 25-440): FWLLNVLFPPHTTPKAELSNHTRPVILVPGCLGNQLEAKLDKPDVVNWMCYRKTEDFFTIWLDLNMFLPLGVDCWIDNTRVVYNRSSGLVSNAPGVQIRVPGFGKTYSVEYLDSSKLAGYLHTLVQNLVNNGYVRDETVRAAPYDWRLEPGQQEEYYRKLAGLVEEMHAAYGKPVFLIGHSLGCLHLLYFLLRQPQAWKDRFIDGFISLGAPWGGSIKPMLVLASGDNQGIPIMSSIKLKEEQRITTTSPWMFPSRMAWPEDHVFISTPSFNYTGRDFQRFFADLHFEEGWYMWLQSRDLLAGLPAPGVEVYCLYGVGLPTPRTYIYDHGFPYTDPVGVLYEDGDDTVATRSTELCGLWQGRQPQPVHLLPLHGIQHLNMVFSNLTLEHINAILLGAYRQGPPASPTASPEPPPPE

## DWLKAFYDKVAEKLKEAF [18A, Asp-Trp-Leu-Lys-Ala-Phe-Tyr-Asp-Lys-Val-Ala-Glu-Lys-Leu-Lys-Glu-Ala-Phe]
[1]; negative stain electron microscopy
  Shape of peptide/phospholipid complexes: discoidal in shape
[1]; room temperature
  Formation of complexes with phospholipid vesicles: form small soluble complexes
HDL
  Displacement of native apolipoprotein from HDL complexes: ability to displace native apolipoprotein from HDL complexes
[2]
  LCAT activation: exhibit LCAT activation
